Patent EP4806918A1
No constants are given. Whether binding was seen depends on the method and setting. Some entries that bind do so weakly or less than the wild type.

The chains behind the UniProt entries cited, without tags or fusion partners. Where a name states a change or a piece, a line headed by the entry shows the natural chain unless it says otherwise. A line that says so, or that is headed by a name, gives the form on record, which may keep a tag or linker.
UniProt Q9NZQ7: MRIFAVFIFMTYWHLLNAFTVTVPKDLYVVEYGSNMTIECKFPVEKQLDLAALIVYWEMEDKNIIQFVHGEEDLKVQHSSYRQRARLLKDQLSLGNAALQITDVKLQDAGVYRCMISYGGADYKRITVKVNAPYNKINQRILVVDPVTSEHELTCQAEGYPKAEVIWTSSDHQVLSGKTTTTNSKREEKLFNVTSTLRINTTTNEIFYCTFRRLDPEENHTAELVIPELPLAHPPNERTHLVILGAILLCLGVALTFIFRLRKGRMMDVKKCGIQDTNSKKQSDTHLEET
cynomolgus monkey PD-L1 on a stable cell line (Probio, M00573) (G7PSE7, form named): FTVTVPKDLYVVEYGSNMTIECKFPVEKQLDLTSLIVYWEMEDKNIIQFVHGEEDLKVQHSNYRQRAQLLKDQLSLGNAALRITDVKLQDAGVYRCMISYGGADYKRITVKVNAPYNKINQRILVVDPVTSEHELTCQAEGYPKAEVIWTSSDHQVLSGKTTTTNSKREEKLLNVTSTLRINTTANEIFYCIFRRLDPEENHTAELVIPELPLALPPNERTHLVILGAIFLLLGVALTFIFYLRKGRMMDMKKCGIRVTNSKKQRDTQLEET

Experiments:
[1] = target: recombinant human PD-L1-His protein (GenScript, Z03425) (human) (UniProt Q9NZQ7); experiment: SPR, Biacore 8K, antibody Fc-captured, human PD-L1-His as analyte
[2] = target: recombinant human PD-L1-His protein (GenScript, Z03425) (human) (UniProt Q9NZQ7); experiment: indirect ELISA, plate coated with recombinant human PD-L1-His
[3] = target: cynomolgus monkey PD-L1 on a stable cell line (Probio, M00573) (cynomolgus monkey) (UniProt G7PSE7); experiment: FACS on stable cell line expressing cynomolgus monkey PD-L1

binding [1]	binding [2]	binding [3]	Binder
binds	binds	binds	AHP30019 fully human antibody (antibody, IgG1, V domains shown, not shown: a dimerising Fc or GST) VH: QVQLVQSGGGLVQPGGSLRLSCAGSGSSFSLAVMGWYRQAPGRQRELVGIISSAAGTNYADSVKGRFTISRDDAKNTLYLQMNSLTAEDTAVYYCWRGAVPGDPYGRWGQGTLVTVSS VL: EIVLTQSPLSLPVTLGQPASISCRSSQSLVHSDGNTYLNWFQQRPGQPPRRLIYEVSNRDSGVPDRFSGSGSGTDFTLKISRVEAEDVGVYYCMQGTHWPWTFGQGTKVEIK
binds	binds	binds	AHP31319 fully human antibody (antibody, IgG1, V domains shown, not shown: a dimerising Fc or GST) VH: EVQLVQSGGGLVQPGGSLRLSCAGSGSSFSLAVMGWYRQAPGRQRELVGIISSAAGTNYADSVKGRFTISRDDAKNTLYLQMNSLTAEDTAVYYCWRGAVPGDPYGRWGQGTTVTVSS VL: EIVMTQSPGTLSLSPGEGATLSCRASQSVSNNYLAWYQQKHGQAPRLLIYGASSRATGIPDRFSGSGSGTDFTLTINRLEPEDFALYYCQQYGNSPGTFGQGTKVDIK
